PubChem BioAssay AID504764 – Drosophila RNAi Screening Center, 2011
In all, the deposit lists about 22,000 reagents; this is a random part of those with a known target gene and a result. Of all reagents, 403 (1.9%) were called active. 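Unnormalised raw counts per well; ratio z-scores behind the hit calls and whether each hit raises or lowers signal are not deposited.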 Entries without a mark were called inactive. Not given: the amount of reagent.

Test: 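Knock-downs that raise or lower a Notch target reporter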 (primary screen)
Cell system: Drosophila Kc167 cells
Knock-down reagent: long dsRNA against Drosophila genes
Time to read-out: about 5 days (4 days dsRNA, then 24 h after transfection)
Challenge: transfection of constitutively active membrane-tethered Notch lacking the extracellular domain, read 24 h later
Measured: 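Firefly luciferase from an E(spl)m3 reporter with active Notch, plus control-promoter and uninduced reporter wells for normalisation; unnormalised counts, duplicate wells a and b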
Scale: induced reporter light, run 1, well a and induced reporter light, run 1, well b: higher = more light from the Notch target reporter with active Notch; control promoter light, run 1, well a and control promoter light, run 1, well b: higher = more light from the viral control promoter (cell number, transfection, viability); uninduced reporter light, run 1, well a: higher = more light from the Notch target reporter without active Notch
Call rule: 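Hit if the duplicate-averaged log2 ratio of induced to control-promoter light gives a plate-wise z beyond ±2, or induced to uninduced beyond ±1.8; weak-control or discordant-duplicate wells dropped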
Calls: active = modifier hit (raised or lowered Notch signal); inactive = not a hit

no.	target gene	DRSC id	induced reporter light, run 1, well a	induced reporter light, run 1, well b	control promoter light, run 1, well a	control promoter light, run 1, well b	uninduced reporter light, run 1, well a
1	rhi	DRSC05996	1.22e5	83475	87140	1.00e5	10810
2	CG6583	DRSC02972	1.61e5	1.59e5	1.74e5	1.69e5	14095
3	CG14624	DRSC18634	84945	97965	1.16e5	1.11e5	8130
4	RpS5b	DRSC16173	1.98e5	2.27e5	2.08e5	1.95e5	16478
5	pav	DRSC08730	95395	90925	1.85e5	1.56e5	7195
6	CG14196	DRSC19551	89845	1.29e5	1.17e5	1.18e5	11270
7	Mur18B	DRSC20063	48015	42680	36260	25585	5078
8	Osi15	DRSC12178	1.63e5	1.29e5	1.19e5	1.07e5	8075
9	CG17036	DRSC02564	2.32e5	2.35e5	2.07e5	2.72e5	21490
10	CG4286	DRSC04459	46855	44530	57350	51785	2125
11	polo	DRSC11384	1.17e5	1.35e5	71330	61005	6870
12	CG15696	DRSC15118	1.76e5	1.74e5	1.53e5	1.65e5	12150
13	CG42789	DRSC13793	2.64e5	2.35e5	3.44e5	3.47e5	15480
14	CG31266	DRSC15747	2.90e5	2.66e5	2.70e5	2.75e5	21110
15	mRpS7	DRSC02814	2.94e5	2.68e5	2.90e5	3.04e5	21360
16	CG4629	DRSC00659	1.07e5	1.30e5	1.09e5	62965	8710
17	CG43737	DRSC19609	89785	1.06e5	1.27e5	1.04e5	15745
18	RpL10Aa	DRSC15518	2.21e5	2.14e5	2.12e5	2.42e5	16495
19	CG9903	DRSC20213	74620	62075	60915	59410	7650
20	CG33159	DRSC08199	1.70e5	1.68e5	2.17e5	2.35e5	12310
21	XRCC1	DRSC18729	2.31e5	2.46e5	2.98e5	2.59e5	14895
22	apt	DRSC04671	1.32e5	1.44e5	35565	45460	33675
23	CG4610	DRSC04477	1.71e5	2.03e5	1.67e5	1.79e5	13260
24	Obp19c	DRSC20528	1.31e5	1.29e5	1.67e5	1.74e5	14665
25	Cp7Fc	DRSC18035	1.70e5	1.40e5	2.15e5	2.05e5	11490
26	CG5828	DRSC02900	1.63e5	1.38e5	1.96e5	1.94e5	8360
27	Rpn2	DRSC16839	12275	13670	12995	16270	735
28	SmD1	DRSC09800	79815	1.07e5	1.32e5	92695	3360
29	CG31198	DRSC15891	1.80e5	1.89e5	2.14e5	2.27e5	17155
30	tadr	DRSC03177	1.66e5	2.35e5	1.72e5	1.55e5	13490
31	ArgRS	DRSC20138	16130	11600	25525	15625	2260
32	PGRP-SD	DRSC10856	2.00e5	1.79e5	1.99e5	1.69e5	7675
33	CG6125	DRSC15970	2.78e5	2.89e5	2.63e5	3.16e5	21095
34	eEF1beta	DRSC07419	66770 (active)	81965	2.04e5	1.88e5	6180
